{"source": "the supplement of paper PMC4604168 (melanoma cell lines)", "note": "Some of the results follow. Many values rest on one well or one pass, so single values are uncertain.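 Imaging used 1,536-well plates; nuclei positive for cleaved PARP by antibody were divided by total DNA-stained nuclei to yield the apoptosis fraction. Doses for screening kept most cells viable, and cell lines differ markedly in resting and induced cleaved-PARP levels.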", "data": [{"test_system": "IST-MEL1", "assay": "cleaved PARP positive nuclei fraction relative to DMSO control; melanoma cells; higher = more apoptosis", "conditions": "library dose: low library concentration; 72 h", "units": {"cleaved PARP positive nuclei fraction": "%"}, "values": [{"smiles": "C[As](C)SC[C@H](NC(=O)CC[C@H](N)C(=O)O)C(=O)NCC(=O)O", "note": "[Darinaparsin] + COc1ccc(Cl)c(Nc2nc3ccccc3nc2NS(=O)(=O)c2cccc(NC(=O)C(C)(C)N)c2)c1 [XL147] (first compound 0.4 µM, partner dose 0.8 µM)", "cleaved PARP positive nuclei fraction": 33.3}, {"smiles": "COCC[n+]1c2c(n(Cc3cnccn3)c1C)C(=O)c1ccccc1C2=O", "note": "+ O=C(Oc1ccc([N+](=O)[O-])cc1)N1CCC(C(O)(c2ccc3c(c2)OCO3)c2ccc3c(c2)OCO3)CC1 [JZL184] (first compound 0.0004 µM, partner dose 1 µM)", "cleaved PARP positive nuclei fraction": 97}, {"smiles": "COc1cc([C@@H]2c3cc4c(cc3[C@@H](O[C@@H]3O[C@@H]5CO[C@@H](C)O[C@H]5[C@H](O)[C@H]3O)[C@H]3COC(=O)[C@H]23)OCO4)cc(OC)c1O", "note": "[etoposide] + C[As](C)SC[C@H](NC(=O)CC[C@H](N)C(=O)O)C(=O)NCC(=O)O [Darinaparsin] (first compound 0.02 µM, partner dose 0.4 µM)", "cleaved PARP positive nuclei fraction": 116}, {"smiles": "C[As](C)SC[C@H](NC(=O)CC[C@H](N)C(=O)O)C(=O)NCC(=O)O", "note": "[Darinaparsin] + Oc1cc(-c2nc(-c3ccccc3)[nH]c2-c2ccncc2)ccc1Cl [L779450] (first compound 0.4 µM, partner dose 0.2 µM)", "cleaved PARP positive nuclei fraction": 107}, {"smiles": "N.N.[Cl][Pt][Cl]", "note": "[cisplatin] + Oc1cc(-c2nc(-c3ccccc3)[nH]c2-c2ccncc2)ccc1Cl [L779450] (first compound 1.6 µM, partner dose 0.2 µM)", "cleaved PARP positive nuclei fraction": 185}]}]}
